Laboratory results reported in US6897019B1, “Methods for treating and preventing insulin resistance and related disorders” (priority 1998, dated 2005).
“Also recorded” adds a separate entry of the source. At least one structure is not confirmed: it was looked up by name or label, or the drawing left a doubt. Some of these results come from one statement about several compounds together.

Legend:
Format in all cases: cell-based, Mouse
3T3-L1 adipocytes [1] = assay: Lipolysis (glycerol in culture medium) of 3T3-L1 adipocytes with or without TNF-α; conditions: for protection against TNF-α induced lipolysis: glycerol after 24 hours; for reduction of glycerol production when added to NaSal, factor: added to cells incubated with 2 mM NaSal
Description: 3T3-L1 adipocytes used in this example were obtained from 3T3-L1 fibroblasts as follows. 3T3-L1 fibroblasts (ATCC Deposit NO. CL-173, described in U.S. Pat. No. 4,003,789) were cultured in Dulbecco's Modified Eagle's Medium (DMEM) containing 10% bovine calf serum, and induced to differentiate into adipocytes using standard protocols, as described, e.g., in Kohanski et al. (1996) J. Biol. Chem. 261:12272. Adipocytes were used 10-15 days after the differentiation protocol was initiated.
Differentiated 3T3-L1 adipocytes cultured in 12 well plates were incubated overnight in DMEM+0.5% BSA in the absence of serum. The following morning, the cells were incubated in the presence or absence of 2 mM or 20 mM sodium salicylate (NaSal) and treated with recombinant murine TNF-α (m TNF-α; Genzyme; Cambridge, Mass.) with or without 17 μM 15-deoxy-^12,14-PGJ2 (“PGJ2”; Cayman Chemical; Ann Arbor, Mich.) or 10 μM BRL 49653 (“BRL”; Smith Kine Beecham (Hamish Ross) (King of Prussia, Pa.)) for 24 hours. The glycerol content in the culture medium was determined using a colorimetric assay (GPO-Trinder, Sigma, St Louis, […].). Protein content was determined using the BCA (bicinchonic acid) protein assay (Pierce, Rockford, Ill.). The results are indicated as nmol glycerol per mg protein.
Accordingly, 3T3-L1 adipocytes were treated with BRL at 10 μM, 1 μM or 1 nM and TNF-α as described above, and the amount of glycerol was determined after 24 hours.
3T3-L1 adipocytes were treated with TNF-α (2 or 10 ng/ml), TNF-α plus BRL at 10 μM, TNF-α plus PGJ2 at 15 μM, or BRL or PGJ2 alone for 5 days. The media was replaced everyday and collected on day 5 to measure accumulation of glycerol.
[…] The glycerol content in the culture medium was determined as described above.
3T3-L1 adipocytes prepared as described in Example 1 were preincubated with various amounts (0-50 μM) of the p38 kinase inhibitor SB203580 and then treated with 10 ng/ml TNF-α for 24 hours and the amount of glycerol in the culture medium determined as described above. […]

JNK-1 = JNK-1 kinase assay (c-jun substrate) on extracts of treated 3T3-L1 adipocytes
Description: 3T3-L1 adipocytes were pretreated for 3 hours with or without 20 mM NaSal, with or without 100 μM MAP kinase kinase (MEK) inhibitor PD98059 (Biomol; Cat. No. EI-360) and then for 15 minutes with 10 ng/ml mTNF-α. JNK-1 kinase assays were then performed with extracts of each of these cell cultures on an N-terminal portion of c-jun, as described in Derjarde et al. (1994) Cell 76: 1025.
(§1) 3T3-L1 adipocytes prepared as described in Example 1 were pretreated for 3 hours with or without 20 mM NaSal or 100 μM PD98059 and then treated for 15 minutes with or without 10 ng/ml mTNF-α and with or without 10 μM BRL. Cell extracts were then prepared and used in ERK 1/2 kinase and JNK-1 kinase assays, as described above.
(§2) 3T3-L1 cells were pretreated for 3 days with 17 μM of PGJ2 and then for 15 minutes with 10 ng/ml TNF-α. The amount of phosphorylated (thus activated) JNK-1, ERK1/2, and p38 was determined by Western blot using an antibody specifically recognizing phosphorylated forms of the proteins. As a control, the total amount of JNK-1, ERK1/2 and p38 protein was determined by Western blot using an antibody recognizing the phosphorylated and non phosphorylated forms of the protein. The activity of ERK1/2 and JNK kinases was also determined in a kinase assay using MBP and a portion of c-jun, respectively, as substrate.

ERK1/2 = assay: ERK 1/2 kinase assay (MBP substrate) on extracts of treated 3T3-L1 adipocytes
Description: In this example, 3T3-L1 cells were treated as described in Example 2, and cell extracts were used in an ERK 1/2 kinase assay, using MBP (myelin basic protein) as a substrate. The assay used is described in Boulton et al. (1991) Cell Reg. 2: 357.
as §1, §2

perilipin A = assay: Western blot of perilipin A protein in 3T3-L1 adipocytes
Description: 3T3-L1 adipocytes were treated with TNF-α at 10 ng/ml, TNF-α plus BRL (10 μM), or BRL alone for 24 hours, following which cell lysates were collected and analyzed by Western blotting using antibodies against HSL and perilipin A proteins. Perilipin antibodies were generated by immunization of rabbits with a peptide identical to amino acids 9-23 of the rat perilipin protein (Greenberg et al. (1993) PNAS 90:12035). Antibodies to HSL were prepared by injecting a peptide based upon the rat HSL sequence (GeneBank) (KDLSFKGNSPEPSDSPEMC; SEQ ID NO: 1) into rabbits. Antibodies were subsequently affinity purified and used for Western blotting at a dilution of 1:1500. Western blotting was performed as follows: adipocytes are briefly rinsed with 1 ml of phosphate saline buffer (PBS, pH 7.4). Proteins were extracted by adding 200 μl of lysis buffer containing 50 mM Hepes, pH 7.4, 100 mM Nacl, 2 mM EDTA, 5% SDS, 0.1 mM Na3V) 4 , 50 mM NaF, 1 mM benzamidine, 100 μM AEBSF, adn 10 μg/ml aprotinin. Equivalent amounts of protein were separated by 10% SDS-PAGE, electrophoretically transferred to nitrocellulose membranes, incubated with primary antibody and subsequentely with donkey anti-rabbit IgG conducaged with horseradish peroxidase. Proteins were detected with enhanced chemiluminescence (ECL) system (Amersham). […]

HSL = assay: Western blot of HSL protein in 3T3-L1 adipocytes; conditions: TNF-α 10 ng/ml plus BRL 10 μM, 24 hours
Description: 3T3-L1 adipocytes were treated with TNF-α at 10 ng/ml, TNF-α plus BRL (10 μM), or BRL alone for 24 hours, following which cell lysates were collected and analyzed by Western blotting using antibodies against HSL and perilipin A proteins. Perilipin antibodies were generated by immunization of rabbits with a peptide identical to amino acids 9-23 of the rat perilipin protein (Greenberg et al. (1993) PNAS 90:12035). Antibodies to HSL were prepared by injecting a peptide based upon the rat HSL sequence (GeneBank) (KDLSFKGNSPEPSDSPEMC; SEQ ID NO: 1) into rabbits. Antibodies were subsequently affinity purified and used for Western blotting at a dilution of 1:1500. Western blotting was performed as follows: adipocytes are briefly rinsed with 1 ml of phosphate saline buffer (PBS, pH 7.4). Proteins were extracted by adding 200 μl of lysis buffer containing 50 mM Hepes, pH 7.4, 100 mM Nacl, 2 mM EDTA, 5% SDS, 0.1 mM Na3V) 4 , 50 mM NaF, 1 mM benzamidine, 100 μM AEBSF, adn 10 μg/ml aprotinin. Equivalent amounts of protein were separated by 10% SDS-PAGE, electrophoretically transferred to nitrocellulose membranes, incubated with primary antibody and subsequentely with donkey anti-rabbit IgG conducaged with horseradish peroxidase. Proteins were detected with enhanced chemiluminescence (ECL) system (Amersham).

3T3-L1 adipocytes [2] = assay: Catecholamine (isoproterenol)-induced glycerol release from 3T3-L1 adipocytes; conditions: BRL or PGJ2
[3] = 10 μM BRL with 10 ng/ml TNF-α for 15 minutes, no BRL pretreatment

Row | Compound | protection against TNF-α induced lipolysis (3T3-L1 adipocytes [1]; 1 nM BRL) | protection against TNF-α induced lipolysis (3T3-L1 adipocytes [1]; 1 μM BRL) | inhibition of TNF-α induced lipolysis (3T3-L1 adipocytes [1]; 10 μM BRL or 17 μM PGJ2, TNF-α 2 or 10 ng/ml, 24 hours) | glycerol accumulation versus control (untreated) cells (3T3-L1 adipocytes [1]; BRL or PGJ2 alone, 5 days) | reduction of glycerol accumulation in TNF-α treated cells (3T3-L1 adipocytes [1]; BRL, 24 hours, compared to TNF-α treated cells) | reduction of glycerol production when added to NaSal, factor (3T3-L1 adipocytes [1]; TNF-α, 24 hours) [factor] | further reduction of lipolysis when added to NaSal (3T3-L1 adipocytes [1]; added to cells incubated with 20 mM NaSal, TNF-α, 24 hours) | activity of JNK-1 kinase (JNK-1; [3]) | JNK activation (JNK-1; 72 hour pretreatment with 5 μM BRL, then TNF-α 10 ng/ml 15 minutes) | activity of ERK 1/2 kinase (ERK1/2; [3]) | activation of ERK (ERK1/2; 24 hour pretreatment with BRL, then TNF-α) | action of TNF-α on expression of perilipin A protein (perilipin A; TNF-α 10 ng/ml plus BRL 10 μM, 24 hours) | downregulation of perilipin A by TNF-α (perilipin A; pretreatment for 72 hours with BRL) | action of TNF-α on expression of HSL protein (HSL) | block of isoproterenol-induced glycerol release (3T3-L1 adipocytes [2])
1 | CN(CCOc1ccc(CC2SC(=O)NC2=O)cc1)c1ccccn1 (stereo not shown) [BRL, rosiglitazone] | not effective | as effective as with 10 μM | significantly inhibited; also recorded: inhibit | not different from levels measured in control | about 58% | < 2 | did not further reduce lipolysis | does not significantly affect | did not, however, significantly affect | does not significantly affect | failed to prevent activation of ERK | partially antagonized | blocked | partially antagonized | neither BRL nor PGJ2 was able to block
2 | CCCCC/C=C/C=C1/C(=O)C=C[C@@H]1C/C=C\CCCC(=O)O [PGJ2, 15-deoxy-^12,14-PGJ2] | – | – | – | – | – | < 2 | – | – | – | – | – | – | – | – | –
